The record followed here is publication PMC8501957.

The target in this test is MvaT of P. aeruginosa (P. aeruginosa) (UniProt Q9HW86). The test is described as follows: dynamic light scattering; unbound MvaT in solution with and without gp4; methods not shown; both purified.

Results are given in words; binding and its absence hold for the method and conditions named. Some entries that bind do so weakly or less than the wild type.

B1: MvaT of P. aeruginosa (protein, UniProt Q9HW86 1-124)
chain: MSLINEYRATEEAIKELQERLKSLEQDDKLKKELEFEEKLRTLMGTYQKSLRDVISLLDPDAKIGKSTRTAKAPAGKRARKVKQYKNPHTGEVIETKGGNHKTLKEWKAKWGPEAVESWATLLG
Take B1: the binding result is “binds”.
